## Screening data, single-dose tests

Source: ChEMBL document CHEMBL3988442, “University of Dundee, Small-Polar-MMV Screening Library” (2021).

Each number is a percent effect as filed.
How 0% and 100% were set is not recorded. Most values in the screen are low, and negative values occur.
The compounds are a random part of those screened.
Two or more numbers in one place are separate tests of the same structure; such repeats can differ widely.

A: 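Growth of Mycobacterium tuberculosis over 3 days (7H9 medium with glucose and tyloxapol); the read-out is not stated. Compounds at 50 µM. Direction is inferred from retests: higher values go with more growth inhibition. Of about 69,000 compounds tested this way, about 760 (1.1%) reached 50% or more in at least one test.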
B: 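Whole-cell growth test on Mycobacterium tuberculosis, read after 4 days in a medium based on cholesterol and the lipid DPPC; the read-out is not stated. Tested at 50 µM. Direction is inferred from retests: higher values go with more growth inhibition. About 69,000 compounds were tested under these conditions; 0.54% (about 370) showed 50% or more at least once.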

structure	A	B
Cc1noc(C)c1CNC(C)c1ccc(S(=O)(=O)N(C)C)cc1 (centres unmarked)	1.295% and -9.76%	-13.61%
COc1ccc(C2(C(=O)N3C[C@@H](C(=O)O)[C@H](C(C)C)C3)CC2)cc1	-2.348% and -0.6498%	2.449%
Brc1cccnc1OC1CCNCC1.Cl	2.714%	-33.93%
Cc1cccc(C)c1OCCNC(=O)C(C)n1cncn1 (centres unmarked)	-0.8124%	-22.57%
[H][C@@]12CNC[C@]1(C(=O)O)CN(C(=O)Nc1ccc(-c3ccccc3)cc1)C2	-13.04%	-11.07%
CN(C)c1nccc(C2CN(C(=O)CO)C2)n1	5.106%	3.47%
CCS(=O)(=O)N1CCC2(CC1)COC(COc1cccnc1)C2.O=C(O)C(F)(F)F (centres unmarked)	-5.251%	-6.652%
Cc1nccn1-c1ccc(CN2CC3C[C@@H](O)CN3C[C@@H]2C)cc1 (some centres unmarked)	-4.091%	-1.592%
O=C1CCC(c2nc(C3CCNCC3)no2)N1 (centres unmarked)	-8.236%	-6.27% and 4.838%
O=C(NCc1cc(-c2ccccc2)no1)NC1CCCCNC1=O (centres unmarked)	32.23%	3.975%
COCCc1noc(CNC2CCc3nc(C(C)C)nn3C2)n1 (centres unmarked)	-12.96%	-7.121%
CCCC(=O)N(C)c1cccc2ncccc12	10.89%	-2.908%
CCOC(=O)C1(Cc2ccc(Cl)cc2)CCN(Cc2ncc[nH]2)CC1	-5.004% and 12.3%	9.931%
O=C(Cc1csc(-c2ccco2)n1)N1CCN(CCO)CC1	-17.63%	-5.125%
Fc1ccc(OCC2CCCO2)c(NCc2cn3cccnc3n2)c1 (centres unmarked)	-11.01% and -34.02%	-17.74%
COc1ccc(C[C@H]2CN(c3nnc(C)s3)CC[C@H]2OC)cc1.O=C(O)C(F)(F)F	49.83% and 51.45%	46.78%
CC(C)c1ncc2c(n1)CN(Cc1nc(Cc3ccccc3)no1)CC2	16.38%	6.647%
CCCn1ncc(C(=O)N2CCCC(OCc3ccccn3)C2)c1C (centres unmarked)	1%	-9.806%
Cc1cnn(CC(C)NCc2cc(=O)n3ccccc3n2)c1 (centres unmarked)	-5.839% and 1.063%	-11.02%
Cc1c[nH]nc1C1CCN(C(=O)C2CCC2)CC1	-23.32%	-10.64%
O=C(c1ccccn1)N1CCN(c2cnnc(N3CCCC3)c2)CC1	-9.398%	-16.85%
NC1(c2nc(-c3cccs3)cc(=O)[nH]2)CCCCC1	1.333% and -31.89%	-27.72%
CCNc1ncc(C(=O)N(C)Cc2nc3cc(Cl)ccc3[nH]2)cn1	-4.101%	13.52%
CC(C)Nc1cc(-c2c[nH]nc2C2CCN(C(=O)C3CCC3)C2)ccn1 (centres unmarked)	-29.55%	-0.8809% and 5.663%
Cc1ccc(CN2CCC3(CC2)CC(N2CCN(C)CC2)CO3)s1.O=C(O)C(F)(F)F.O=C(O)C(F)(F)F.O=C(O)C(F)(F)F (centres unmarked)	-5.195%	20.12% and -11.67%
C[C@@]1(O)CCN(Cc2cc[nH]n2)C[C@H]1Oc1cccc(F)c1	15.3%	2.509%
CCCNC(c1cccnc1)c1ccc(F)c(C)c1.Cl.Cl (centres unmarked)	-9.834%	-21.54%
Cc1ncsc1C(=O)NC1CCN(CC(=O)NCc2ccccc2)CC1	-14.54%	-3.667%
CCc1cc(=O)n(CC(=O)N2CCCC2)c(-c2ccccc2)n1	-2.586%	-5.484%
CCOC1CCCN(C(=O)c2sccc2-n2cnnn2)C1 (centres unmarked)	-2.793%	5.078%
CSCC(=O)N1CCOC(c2nc(C(C)(C)C)n[nH]2)C1 (centres unmarked)	-10.18%	4.713%
Cc1cccc2c1nc1n2[C@@H](CNC(=O)c2cnccn2)COC1	-15.98% and -7.795%	-27.61%
CNC(=O)COc1cccc(CNCc2c(C)noc2C)c1	-27.73%	-29.56%
Cc1cc(C)c(-c2nc(-c3c(C)ncc4c3CCNC4)no2)o1	-11.21%	3.032%
O=C(O)c1cc(/C=C/c2cccc3ccccc23)ncn1	20.65%	3.794% and -4.911%
Cc1ccnc(N2CCCC(c3nncn3C3CC3)C2)n1 (centres unmarked)	-0.1382%	-5.206%
CC(NCC1CCS(=O)(=O)CC1)c1cccc(OC(F)F)c1 (centres unmarked)	15.05%	-16.68%
c1ccc2c(c1)CCN(c1ncnc3sc4c(c13)CCNC4)C2	37.62%	18.87%
CNC(=O)COc1ccc(CNCc2cc(F)ccc2F)cc1	-11.34%	2.838%
c1cnn(CCNCCCOc2ccc3c(c2)OCO3)c1	33.18% and 30.57%	15.43%
CCc1cnc(N)nc1NCCCn1cc(Cl)cn1	-3.323%	1.114% and 4.09%